Data set [1] can be described thus: Bidirectional transport assays (BTA), apparent permeability coefficients and transport ratios. Particulars: rainbow trout (Oncorhynchus mykiss).
The next data set has as its system DSI gill cell epithelium. The description is as above. Particulars: asymmetrical conditions; 6 h.

One may read the Papp A→B as how fast a substance crosses the layer from the apical side. As usually defined, the Papp B→A is the apparent permeability from the basolateral to the apical side of a cell layer. As for `CC(C)NCC(O)COc1ccc(CC(N)=O)cc1` (stereo not drawn) [Atenolol, atenolol], in data set [1], the apical-to-basolateral permeability (Papp A→B) at 6 h, 1 μg L^−1 worked out at 0.1 ± 0.03 ×10⁻⁶ cm/s and the Papp B→A at 6 h, 1 μg L^−1 worked out at 0.1 ± 0.02 ×10⁻⁶ cm/s. The “difference between Papp A:B and Papp B:A” value in the data set on DSI gill cell epithelium was “no significant differences”.

The values above are taken from article PMC4303912, “A primary fish gill cell culture model to assess pharmaceutical uptake and efflux: Evidence for passive and facilitated transport” (Aquatic Toxicology (Amsterdam, Netherlands), 2015).
